# Measured values: the supplement of paper PMC8728848
# The other results are listed elsewhere or left out.
# B1: Actd5 (Actinidia), P84527 (protein)
# chain: ISSCNGPCRDLNDCDGQLICIKGKCNDDPQVGTHICRGTTHSHQPGGCKPSGTLTCRGKSYPTYDCSPPVTSSTPAKLTNNDFSEGGDDGGPSECDESYHNNNERIVALSTGWYNGGSRCGKMIRITASNGKSVSAKVVDECDSRHGCDKEHAGQPPCRNNIVDGSNAVWSALGLDKNVGVVDITWSMA
# Assays:
# Experiment in all cases: glycan array binding signal (z-score within array); higher = stronger binding
# Conditions in all cases: glycan notation: IUPAC condensed, linker removed
# [1] = target: Neu5Ac(a2-3)Gal(b1-3)]Neu5Ac(a2-3)Gal(b1-4)]GlcNAc
# Procedure, shortened: (§1)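 Columns mapping to the same glycan were averaged after glycan names were converted to IUPAC-condensed notation. The data come from 3228 arrays in the Consortium for Functional Glycomics database, limited to those with an available protein sequence. Binding is reported as a within-array Z-score averaged across arrays of one protein sequence and across linkers.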
# [2] = target: Neu5Ac(a2-3)Gal(b1-4)Glc
# Procedure, shortened: as §1
# [3] = target: Neu5Ac(a2-3)Gal(b1-4)GlcNAc
# Procedure, shortened: as §1
# [4] = target: Neu5Ac(a2-3)Gal(b1-4)GlcNAc(b1-2)Man
# Procedure, shortened: as §1
# [5] = target: Neu5Ac(a2-3)Gal(b1-4)GlcNAc(b1-2)Man(a1-3)[GlcNAc(b1-4)][Neu5Ac(a2-3)Gal(b1-4)GlcNAc(b1-2)Man(a1-6)]Man(b1-4)GlcNAc(b1-4)GlcNAc
# Procedure, shortened: as §1
# [6] = target: Neu5Ac(a2-3)Gal(b1-4)GlcNAc(b1-2)Man(a1-3)[Neu5Ac(a2-3)Gal(b1-4)GlcNAc(b1-2)Man(a1-6)]Man(b1-4)GlcNAc(b1-4)GlcNAc
# Procedure, shortened: as §1
# [7] = target: Neu5Ac(a2-3)Gal(b1-4)GlcNAc(b1-2)Man(a1-3)[Neu5Ac(a2-3)Gal(b1-4)GlcNAc(b1-2)Man(a1-6)]Man(b1-4)GlcNAc(b1-4)[Fuc(a1-6)]GlcNAc
# Procedure, shortened: as §1
# [8] = target: Neu5Ac(a2-3)Gal(b1-4)GlcNAc(b1-2)Man(a1-3)[Neu5Ac(a2-6)Gal(b1-4)GlcNAc(b1-2)Man(a1-6)]Man(b1-4)GlcNAc(b1-4)GlcNAc
# Procedure, shortened: as §1
# [9] = target: Neu5Ac(a2-3)Gal(b1-4)GlcNAc(b1-2)[Neu5Ac(a2-3)Gal(b1-4)GlcNAc(b1-4)]Man(a1-3)[GlcNAc(b1-4)][Neu5Ac(a2-3)Gal(b1-4)GlcNAc(b1-2)[Neu5Ac(a2-3)Gal(b1-4)GlcNAc(b1-6)]Man(a1-6)]Man(b1-4)GlcNAc(b1-4)GlcNAc
# Procedure, shortened: as §1
# [10] = target: Neu5Ac(a2-3)Gal(b1-4)GlcNAc(b1-2)[Neu5Ac(a2-3)Gal(b1-4)GlcNAc(b1-4)]Man(a1-3)[GlcNAc(b1-4)][Neu5Ac(a2-3)Gal(b1-4)GlcNAc(b1-4)Man(a1-6)]Man(b1-4)GlcNAc(b1-4)GlcNAc
# Procedure, shortened: as §1
# [11] = target: Neu5Ac(a2-3)Gal(b1-4)GlcNAc(b1-2)[Neu5Ac(a2-3)Gal(b1-4)GlcNAc(b1-6)]Man(a1-6)[Neu5Ac(a2-3)Gal(b1-4)GlcNAc(b1-2)Man(a1-3)][GlcNAc(b1-4)]Man(b1-4)GlcNAc(b1-4)GlcNAc
# Procedure, shortened: as §1
# [12] = target: Neu5Ac(a2-3)Gal(b1-4)GlcNAc(b1-3)Gal
# Procedure, shortened: as §1
# [13] = target: Neu5Ac(a2-3)Gal(b1-4)GlcNAc(b1-3)Gal(b1-3)GlcNAc
# Procedure, shortened: as §1
# [14] = target: Neu5Ac(a2-3)Gal(b1-4)GlcNAc(b1-3)Gal(b1-4)GlcNAc
# Procedure, shortened: as §1
# [15] = target: Neu5Ac(a2-3)Gal(b1-4)GlcNAc(b1-3)Gal(b1-4)GlcNAc(b1-2)Man(a1-3)[Neu5Ac(a2-3)Gal(b1-4)GlcNAc(b1-3)Gal(b1-4)GlcNAc(b1-2)Man(a1-6)]Man(b1-4)GlcNAc(b1-4)GlcNAc
# Procedure, shortened: as §1
# [16] = target: Neu5Ac(a2-3)Gal(b1-4)GlcNAc(b1-3)Gal(b1-4)GlcNAc(b1-3)Gal(b1-4)GlcNAc
# Procedure, shortened: as §1
# [17] = target: Neu5Ac(a2-3)Gal(b1-4)GlcNAc(b1-3)Gal(b1-4)GlcNAc(b1-3)Gal(b1-4)GlcNAc(b1-2)Man(a1-3)[Neu5Ac(a2-3)Gal(b1-4)GlcNAc(b1-3)Gal(b1-4)GlcNAc(b1-3)Gal(b1-4)GlcNAc(b1-2)Man(a1-6)]GalNAc
# Procedure, shortened: as §1
# [18] = target: Neu5Ac(a2-3)Gal(b1-4)GlcNAc(b1-3)Gal(b1-4)GlcNAc(b1-3)GalNAc
# Procedure, shortened: as §1
# [19] = target: Neu5Ac(a2-3)Gal(b1-4)GlcNAc(b1-3)Gal(b1-4)GlcNAc(b1-3)[Neu5Ac(a2-3)Gal(b1-4)GlcNAc(b1-3)Gal(b1-4)GlcNAc(b1-6)]GalNAc
# Procedure, shortened: as §1
# [20] = target: Neu5Ac(a2-3)Gal(b1-4)GlcNAc(b1-3)Gal(b1-4)GlcNAc(b1-6)[Gal(b1-3)]GalNAc
# Procedure, shortened: as §1
# [21] = target: Neu5Ac(a2-3)Gal(b1-4)GlcNAc(b1-3)Gal(b1-4)[Fuc(a1-3)]GlcNAc
# Procedure, shortened: as §1
# [22] = target: Neu5Ac(a2-3)Gal(b1-4)GlcNAc(b1-3)GalNAc
# Procedure, shortened: as §1
# [23] = target: Neu5Ac(a2-3)Gal(b1-4)GlcNAc(b1-3)[Neu5Ac(a2-3)Gal(b1-4)GlcNAc(b1-6)]GalNAc
# Procedure, shortened: as §1
# [24] = target: Neu5Ac(a2-3)Gal(b1-4)GlcNAc(b1-6)GalNAc
# Procedure, shortened: as §1
# [25] = target: Neu5Ac(a2-3)Gal(b1-4)GlcNAc(b1-6)[Gal(b1-3)]GalNAc
# Procedure, shortened: as §1
# [26] = target: Neu5Ac(a2-3)Gal(b1-4)GlcNAc(b1-6)[Neu5Ac(a2-3)Gal(b1-3)]GalNAc
# Procedure, shortened: as §1
# [27] = target: Neu5Ac(a2-3)Gal(b1-4)GlcNAc6S
# Procedure, shortened: as §1
# [28] = target: Neu5Ac(a2-3)Gal(b1-4)[Fuc(a1-3)]GlcNAc
# Procedure, shortened: as §1
# [29] = target: Neu5Ac(a2-3)Gal(b1-4)[Fuc(a1-3)]GlcNAc(b1-2)Man
# Procedure, shortened: as §1
# [30] = target: Neu5Ac(a2-3)Gal(b1-4)[Fuc(a1-3)]GlcNAc(b1-3)Gal
# Procedure, shortened: as §1
# [31] = target: Neu5Ac(a2-3)Gal(b1-4)[Fuc(a1-3)]GlcNAc(b1-3)Gal(b1-4)GlcNAc
# Procedure, shortened: as §1
# [32] = target: Neu5Ac(a2-3)Gal(b1-4)[Fuc(a1-3)]GlcNAc(b1-3)Gal(b1-4)[Fuc(a1-3)]GlcNAc(b1-3)Gal(b1-4)[Fuc(a1-3)]GlcNAc
# Procedure, shortened: as §1
# [33] = target: Neu5Ac(a2-3)Gal(b1-4)[Fuc(a1-3)]GlcNAc(b1-3)GalNAc
# Procedure, shortened: as §1
# [34] = target: Neu5Ac(a2-3)Gal(b1-4)[Fuc(a1-3)]GlcNAc(b1-6)[Gal(b1-3)]GalNAc
# Procedure, shortened: as §1
# [35] = target: Neu5Ac(a2-3)Gal(b1-4)[Fuc(a1-3)]GlcNAc(b1-6)[Neu5Ac(a2-3)Gal(b1-3)]GalNAc
# Procedure, shortened: as §1
# [36] = target: Neu5Ac(a2-3)Gal(b1-4)[Fuc(a1-3)]GlcNAc6S
# Procedure, shortened: as §1
# [37] = target: Neu5Ac(a2-3)Gal6S(b1-4)GlcNAc
# Procedure, shortened: as §1
# [38] = target: Neu5Ac(a2-3)Gal6S(b1-4)[Fuc(a1-3)]GlcNAc
# Procedure, shortened: as §1
binder,measurement,setting,value
B1,glycan array binding signal (z-score),[1],0.26
same,glycan array binding signal (z-score),[2],0.612
same,glycan array binding signal (z-score),[3],-0.811
same,glycan array binding signal (z-score),[4],-0.448
same,glycan array binding signal (z-score),[5],0.172
same,glycan array binding signal (z-score),[6],-0.792
same,glycan array binding signal (z-score),[7],-0.173
same,glycan array binding signal (z-score),[8],-0.869
same,glycan array binding signal (z-score),[9],-0.296
same,glycan array binding signal (z-score),[10],-0.344
same,glycan array binding signal (z-score),[11],-0.894
same,glycan array binding signal (z-score),[12],-0.737
same,glycan array binding signal (z-score),[13],0.147
same,glycan array binding signal (z-score),[14],0.453
same,glycan array binding signal (z-score),[15],2.42
same,glycan array binding signal (z-score),[16],-1.55
same,glycan array binding signal (z-score),[17],5.66
same,glycan array binding signal (z-score),[18],-0.279
same,glycan array binding signal (z-score),[19],0.948
same,glycan array binding signal (z-score),[20],0.154
same,glycan array binding signal (z-score),[21],-0.419
same,glycan array binding signal (z-score),[22],0.374
same,glycan array binding signal (z-score),[23],-0.726
same,glycan array binding signal (z-score),[24],-0.87
same,glycan array binding signal (z-score),[25],0.092
same,glycan array binding signal (z-score),[26],-0.545
same,glycan array binding signal (z-score),[27],0.246
same,glycan array binding signal (z-score),[28],-0.42
same,glycan array binding signal (z-score),[29],-1.27
same,glycan array binding signal (z-score),[30],-0.144
same,glycan array binding signal (z-score),[31],0.65
same,glycan array binding signal (z-score),[32],-0.158
same,glycan array binding signal (z-score),[33],1.09
same,glycan array binding signal (z-score),[34],1.5
same,glycan array binding signal (z-score),[35],-0.33
same,glycan array binding signal (z-score),[36],-0.958
same,glycan array binding signal (z-score),[37],-0.992
same,glycan array binding signal (z-score),[38],-0.852

# Looked up one by one from the list above, 3 records:
binder,measurement,setting,value
B1,glycan array binding signal (z-score),[11],-0.894
same,glycan array binding signal (z-score),[35],-0.33
same,glycan array binding signal (z-score),[29],-1.27
